The whole screen tested about 400,000 compounds, of which about 13,000 (3.2%) were called active. The inconclusive results got no clear call from the source; some entries with a clear call stand among them for comparison. Calls come from the whole dose curve; as a rule, active = well fitted cell-killing curve with a large enough effect; inconclusive = small, poorly fitted or top-dose-only effect, or effect the other way; inactive = flat fitted curve, though single readings scatter. Where the call is inconclusive, the potency comes from a doubtful curve fit.
Assay: qHTS assay for MDR1-selective chemotherapeutics: Primary screen using the drug-selected MDR subline cells KB-V1; note: nearly all actives have a fitted effect of over 60% in size
Details: KB-V1 MDR cells viability, CellTiter-Glo, 72 h; series mostly up to 46.1 µM
How it was run: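 In this primary screen, KB-V1 cells overexpressing P-gp are incubated with library compounds (lowest to highest concentration) for 72 h at 37 degrees C before a luminescent ATP viability read.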
Potency is the fitted concentration of half-maximal effect.

SMILES	Potency
O=C(CCN1CCOCC1)N1CCCC(Nc2cccc(F)c2)C1 (centres undefined)	inactive
O=C1COc2ccc(C(=O)COC(=O)c3ccccn3)cc2N1	inconclusive: 18.4 µM [rising, single point]
O=S(=O)(Nc1ccc(N=Nc2ccccc2)cc1)c1ccccc1	active: 3.26 µM
COc1ccc(C(OCC(O)CNCCc2ccccc2)c2ccc(OC)cc2)cc1 (centres undefined)	active: 16.4 µM
COc1cccc(NC(=O)Cc2nnc(SCC(=O)NC3=NCCS3)n2C)c1	inconclusive: 0.231 µM [rising, full curve]
CC(=O)c1c(C)oc2ccc(N(C(C)=O)S(=O)(=O)c3cccc([N+](=O)[O-])c3)cc12	inactive
Cc1ccc(S(=O)(=O)NC(=O)c2cc(C)n(CCCn3ccnc3)c2C)cc1	inconclusive: 7.31 µM [rising, partial curve]
O=C(c1cccs1)N1CCC(C(=O)N2CCN(Cc3ccc4c(c3)OCO4)CC2)CC1	inconclusive: 11.6 µM [cytotoxic, partial curve]
COc1ccccc1OCC(=O)Nc1ccc2c(c1)C(=O)N(CC1CCCO1)C2=O (centres undefined)	inactive
CC(C)(C)c1ccc(S(=O)(=O)N2CCN(CCC#N)CC2)cc1	inactive
C(=C1c2ccccc2-c2ccccc21)c1ccccn1	inconclusive: 29.1 µM [cytotoxic, single point]
COC(=O)[C@@]12C[C@@H](CC(=O)NCC3CCCCC3)C(=O)N(Cc3ccco3)C1=CCC(C)(C)C2	inconclusive: 9.2 µM [cytotoxic, partial curve]
CCOC(=O)c1c(C)nc2sc3c(=O)n(-c4ccc(C(C)=O)cc4)cnc3c2c1-c1ccc(OC)cc1	inactive
COCc1c(C(=O)N/N=C(\C)c2ccncc2)nnn1-c1nonc1N	inconclusive: 0.366 µM [rising, full curve, poor fit]
O=C(N/N=C\c1ccc(Cl)cc1)C1=NOC2COC3(CCN(c4ccc([N+](=O)[O-])cc4)CC3)OCC12 (centres undefined)	inconclusive: 5.17 µM [cytotoxic, full curve]
CCOC(=O)[C@]12CCC=C1N(Cc1ccccc1)C(=O)[C@H](CC(=O)NCc1cccc3ccccc13)C2	inconclusive: 18.4 µM [cytotoxic, partial curve]
CNC(=O)c1cccc(NC(=O)C(C)c2ccc3cc(OC)ccc3c2)c1 (centres undefined)	inconclusive: 4.11 µM [cytotoxic, full curve, poor fit]
COCCNC(=O)C1C(=O)Nc2ccccc2C(=O)N1Cc1ccccc1 (centres undefined)	inactive
Cc1ccc(NC(=O)CSc2ncnc3c2sc2ccccc23)cc1C	inactive
O=C(OCCOc1ccccc1Cl)c1ccc(-n2cnnn2)cc1	inactive
COc1cc2nc(SCC(=O)c3ccc(Br)cc3)n3nc(C)nc3c2cc1OC	inconclusive: 2.06 µM [cytotoxic, full curve]
CCn1cc(S(=O)(=O)c2ccc(C)cc2)c(=O)c2cc(F)c(N3CCCCCC3)cc21	inconclusive: 14.6 µM [rising, partial curve, poor fit]
O=C1COc2ccc(C(=O)COC(=O)c3ccccc3[N+](=O)[O-])cc2N1	inconclusive: 29.1 µM [rising, single point]

Random excerpt: 5 compounds from above.
SMILES	Potency
O=C1COc2ccc(C(=O)COC(=O)c3ccccn3)cc2N1	inconclusive: 18.4 µM [rising, single point]
CNC(=O)c1cccc(NC(=O)C(C)c2ccc3cc(OC)ccc3c2)c1 (centres undefined)	inconclusive: 4.11 µM [cytotoxic, full curve, poor fit]
Cc1ccc(S(=O)(=O)NC(=O)c2cc(C)n(CCCn3ccnc3)c2C)cc1	inconclusive: 7.31 µM [rising, partial curve]
O=S(=O)(Nc1ccc(N=Nc2ccccc2)cc1)c1ccccc1	active: 3.26 µM
COc1ccc(C(OCC(O)CNCCc2ccccc2)c2ccc(OC)cc2)cc1 (centres undefined)	active: 16.4 µM

Going on with the list:

SMILES	Potency
Cn1nc(-c2ccccc2F)c2cc(C(=O)N3CCN(c4ccc(F)cc4)CC3)sc21	inactive
Cc1cc(N/N=C/c2ccc(Cl)cc2)nc(NCc2ccccc2)n1	inconclusive: 0.461 µM [cytotoxic, full curve, poor fit]
COC(=O)CNC(=O)Cn1cnc2sc(C)c(S(=O)(=O)N3CCC(C)CC3)c2c1=O	inactive
O=C(N/N=C/c1cccc2cccnc12)c1ccccc1O	inconclusive: 20.6 µM [cytotoxic, single point]
CCN(C(=O)c1ccc(S(=O)(=O)N2CCC(C)CC2)cc1)C1CCS(=O)(=O)C1 (centres undefined)	inactive
C#CCOCCOCCOCCNc1nc(N2CCN(C(=O)CCCCCCCCCCNC(=O)[C@H](CCCCN)n3cc(CCO)nn3)CC2)nc(N2CCN(C(=O)CCCCCCCCCCNC(=O)[C@H](CCCCN)n3cc(CCO)nn3)CC2)n1	inactive
CCCOc1ccc2oc(=O)c3c(c2c1)CCCN3C(=O)CN1CCCC(C(=O)OCC)C1 (centres undefined)	active: 11.6 µM
Cc1cccc(N2CCN(S(=O)(=O)c3ccc(F)c(C(=O)Nc4ccc(C(C)C)cc4)c3)CC2)c1C	inactive
CCN(CC)C(CNC(=O)CSc1nnnn1-c1c(C)cccc1C)c1ccco1 (centres undefined)	inconclusive: 2.31 µM [cytotoxic, full curve]
CCC1CCCCN1S(=O)(=O)c1ccc(NC(=O)c2ccncc2)cc1 (centres undefined)	inconclusive: 32.6 µM [cytotoxic, single point]
CC(C)Oc1ccc(/C(O)=C2/C(=O)C(=O)N(CCN(C)C)C2c2ccco2)cc1 (centres undefined)	inconclusive: 29.1 µM [rising, single point]
Cc1ccccc1S(=O)(=O)N1CCN(c2ccc3c(c2)C2CC3CCN2C(=O)OCc2ccccc2)CC1 (centres undefined)	inactive
CCc1ccc(Nc2ccc(S(=O)(=O)N3CCOCC3)cc2[N+](=O)[O-])cc1	active: 23.1 µM
CCCn1c(O)c(CN2CCCCC2)c(C)c(C#N)c1=O	inconclusive: 6.51 µM [rising, partial curve, poor fit]
Cc1ccc(C(=O)CCC(=O)Nc2ccc(Cl)c(S(=O)(=O)Nc3cccc(Cl)c3)c2)cc1	active: 16.4 µM
c1ccc(CNc2c3c(nc4ncnn24)CCC3)cc1	inconclusive: 14.6 µM [cytotoxic, partial curve, poor fit]
CCCCC(=O)Nc1ccc(NC(=S)NC(=O)CC)cc1OC	inconclusive: 18.4 µM [cytotoxic, partial curve, poor fit]
COC(=O)Oc1ccc(/C=N/NC(=O)CSCc2ccccc2Br)cc1OC	inactive
CCc1ccc(OCC(=O)N(C)CCC#N)c(Br)c1	inconclusive: 29.1 µM [cytotoxic, single point]
CC(=O)C(=Cc1ccc(Cl)cc1)C(=O)c1ccccc1	inconclusive: 29.1 µM [cytotoxic, single point]
COc1ccc(OC)c(Nc2ncnc3c2cnn3-c2ccc(C)cc2)c1	inactive
O=C(CN1CCOc2ccccc21)N1CCC(Cc2ccccc2)CC1	inconclusive: 25.9 µM [cytotoxic, partial curve, poor fit]
COc1ccccc1C(CNC(=O)c1ccc(-c2ccccc2Cl)o1)N1CCCC1 (centres undefined)	inconclusive: 32.6 µM [cytotoxic, single point]

SMILES	Potency
Cc1cc(Cl)ccc1OC(C)C(=O)N1CCCN(C(=O)C(C)Oc2ccc(Cl)cc2C)CC1 (centres undefined)	inconclusive: 16.4 µM [cytotoxic, single point]
S=C(NCc1ccco1)N/N=C/c1ccc(Cl)cc1	inconclusive: 29.1 µM [cytotoxic, single point]
CC1=C(C(=O)Nc2ccccc2C)C(c2ccc(C)o2)n2c(s/c(=C/c3ccccc3)c2=O)=N1 (centres undefined)	inactive
CCOc1ccc(CNc2ccc(N3CCCC3)cc2)cc1	inactive
O=C(CN1CCC(C(=O)c2ccc(Cl)cc2)CC1)NC1CCCC1	inconclusive: 29.1 µM [cytotoxic, single point]
Cc1c(C(=O)Nc2ccc(Br)cc2F)sc2ncnc(N(C)C3CCCCC3)c12	inactive
COc1ccc2[nH]c(C(=O)N3CCC(CO)(Cc4cccc(C(F)(F)F)c4)CC3)c(C)c2c1	inactive
CC(C)=CCCC(C)CN1CCC(N2CCC(C(=O)N3CCOCC3)CC2)CC1 (centres undefined)	inconclusive: 4.11 µM [cytotoxic, partial curve, poor fit]
CCC(=O)N1CCCc2cc(S(=O)(=O)Nc3ccc(C)c(C)c3)ccc21	inconclusive: 29.1 µM [cytotoxic, single point]
Cc1ccccc1S(=O)(=O)Cc1ccc(C(=O)NCCN(C)Cc2ccccc2)o1	inactive
COCCOc1cc(N(CC(=O)N(C)C)S(=O)(=O)c2ccccc2)c(Cl)cc1Cl	inconclusive: 0.206 µM [cytotoxic, full curve]
CCN(CC)C(=O)Oc1ccc(OC(=O)N(CC)CC)cc1	inconclusive: 8.2 µM [cytotoxic, partial curve, poor fit]
CC(C)(C)c1ccc(NC(=O)N2CCN(c3ccc([N+](=O)[O-])cn3)CC2)cc1	inconclusive: 4.61 µM [cytotoxic, full curve]
CSc1nc2c(c(C(F)(F)F)n1)CC(C)CC2 (centres undefined)	inconclusive: 0.0092 µM [rising, full curve]
NC(=S)N/N=C\c1c(OCc2ccccc2Cl)ccc2ccccc12	inactive
Cc1ccc(NC(=S)N=Nc2c(O)[nH]c3ccccc23)cc1	inconclusive: 5.8 µM [cytotoxic, full curve]
O=C(NCC1CC1(Cl)Cl)Nc1ccc(Cl)c(Cl)c1 (centres undefined)	inconclusive: 20.6 µM [cytotoxic, single point]
COC(=O)C1=C(C)N(Cc2ccccc2)C(=NCC(C)C)N[C@H]1c1cccc(F)c1	inconclusive: 29.1 µM [cytotoxic, single point]
CCOC(=O)c1cnc2c(OC)cccc2c1Nc1cccc(O)c1	active: 13 µM
COc1ccccc1CNC(=O)CN1C(=O)NC2(CCCc3sccc32)C1=O (centres undefined)	inactive
CC(C)(C)c1ccc(NC(=O)CSc2nnc3scc(-c4ccccc4)n23)cc1	inconclusive: 29.1 µM [cytotoxic, single point]
C[C@@H]1CN([C@H](C)CO)C(=O)CCCn2nncc2CO[C@@H]1CN(C)C(=O)Nc1ccc2c(c1)OCO2	inactive
COc1ccc2c(c1)[C@H]1[C@H](CO2)[C@H](c2ccccc2)[C@]2(C)C(=O)Nc3cc(C)ccc3C(=O)N12	inconclusive: 29.1 µM [cytotoxic, single point]

Source: PubChem BioAssay AID1347076 (National Center for Advancing Translational Sciences (NCATS), 2019)
